Values from PubChem BioAssay AID1259254 (NCATS, 2017).
Assay: 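Gene knock-downs that lead to re-replication, shown by excess G2 DNA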 (primary screen). Cells: human HCT116 colorectal cancer cells. Knock-down reagent: single siRNA against human genes. Duration: 3 days. Measured: 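Nuclei stained with Hoechst and imaged; cell-cycle phase assigned by DNA content; G2 share scaled per plate, non-targeting siRNA 0%, GMNN siRNA 100%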. Direction: G2 robust z-score: higher = more G2 cells, more excess DNA replication. Active means: 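Active siRNAs have a G2 robust z of 5 or more median absolute deviations over the median, which in these data means about 38% or higher of GMNN control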.
Here is an unselected part of about 59,000 deposited reagents. About 1,550 of them (2.6%) were called active. 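G2 share is only a proxy for re-replication; each gene was hit by three separate siRNAs, and active genes were retested.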 The numbers tell different reagents against one gene apart. Not all columns of the deposit are shown. Not given: the amount of reagent.

CENPT #1: G2 robust z-score = 3.62; Call = inactive
CENPT #2: G2 robust z-score = 0.616; Call = inactive
CENPT #3: G2 robust z-score = 0.92; Call = inactive
SACK1F #1: G2 robust z-score = 0.735; Call = inactive
SACK1F #2: G2 robust z-score = 0.0278; Call = inactive
SACK1F #3: G2 robust z-score = 1.62; Call = inactive

A portion from the list above:
CENPT #3: G2 robust z-score = 0.92; Call = inactive
SACK1F #1: G2 robust z-score = 0.735; Call = inactive

The list goes on.
IARS1 #1: G2 robust z-score = -0.751; Call = inactive
IARS1 #2: G2 robust z-score = -0.541; Call = inactive
IARS1 #3: G2 robust z-score = -1; Call = inactive
DEFB116 #1: G2 robust z-score = 2.02; Call = inactive
DEFB116 #2: G2 robust z-score = 0.219; Call = inactive
DEFB116 #3: G2 robust z-score = 0.202; Call = inactive
BTNL2 #1: G2 robust z-score = 2.01; Call = inactive
BTNL2 #2: G2 robust z-score = -1.05; Call = inactive
BTNL2 #3: G2 robust z-score = -1.14; Call = inactive
TACC1 #1: G2 robust z-score = 3.78; Call = inactive
TACC1 #2: G2 robust z-score = 6.07; Call = active
TACC1 #3: G2 robust z-score = -0.445; Call = inactive
